From the supplement of paper PMC8090911
Counter-ions that a name gives are not always drawn. The list shows a part of the results. Most values come without repeats; read them as rough.

Tested on: p95-ErbB2-MCF7
Assay: perinuclear lysosome accumulation (PNLA, size of LAMP2 puncta), robust Z-score vs plate median; higher = more perinuclear lysosome accumulation (reversal of invasive lysosome distribution)
Conditions: 5 µM; 24 h

Structure (SMILES) | perinuclear lysosome accumulation
Cc1nccc2c1[nH]c1ccccc12 [Harmane hydrochloride] | -1.84
CC[C@@H](C(N)=O)N1CCCC1=O [Levetiracetam] | 0.111
O=C(O)CCCc1ccc(N(CCCl)CCCl)cc1 [Chlorambucil] | 0.235
COc1ccc(C(=O)N2CCCC2=O)cc1 [Aniracetam] | 0.382
C[C@]12CCC(=O)C=C1CC[C@@H]1[C@@H]2C(=O)C[C@]2(C)C(=O)CC[C@@H]12 [Adrenosterone] | 0.393
C[N+]1(C)CCOC(O)(c2ccc(-c3ccc(C4(O)C[N+](C)(C)CCO4)cc3)cc2)C1 (stereo unspecified) [Hemicholinium bromide] | -0.278
C[CH2][Hg][S]c1ccccc1C(=O)[O-].[Na+] [Thimerosal] | -0.127
CCN[C@@H](C)Cc1cccc(C(F)(F)F)c1 [Dexfenfluramine hydrochloride] | 0.461
COc1ccc2[nH]c3c(c2c1)CCN=C3C [Methoxy-6-harmalan] | -0.0901
C[N+]1(C)[C@@H]2CC[C@H]1C[C@@H](OC(=O)C(CO)c1ccccc1)C2 (stereo partly specified) [Methylatropine nitrate] | 0.0246
CN1C[C@H](C(=O)N[C@]2(C)O[C@@]3(O)[C@@H]4CCCN4C(=O)[C@H](Cc4ccccc4)N3C2=O)C[C@@H]2c3cccc4[nH]cc(c34)C[C@H]21 [Dihydroergotamine tartrate] | 0.657
C[N+](C)(C)CCCCCCCCCC[N+](C)(C)C [Decamethonium bromide] | 0.253
c1ccc2nc(N3CCNCC3)ccc2c1 [Quipazine dimaleate salt] | 1.65
CC(CCc1ccccc1)NC(C)C(O)c1ccc(O)cc1 (stereo unspecified) [Nylidrin] | -2.22
COc1cccc(C2(O)CCCCC2CN(C)C)c1 (stereo unspecified) [Tramadol hydrochloride] | 0.253
CC[C@@]1(O)C(=O)OCc2c1cc1n(c2=O)Cc2cc3ccccc3nc2-1 [Camptothecine (S,+)] | 0.0755
CCC(=O)O[C@@](Cc1ccccc1)(c1ccccc1)[C@@H](C)CN(C)C [Levopropoxyphene napsylate] | 1.28
CCCN1C[C@H](CSC)C[C@@H]2c3cccc4[nH]cc(c34)C[C@H]21 [Pergolide mesylate] | 0.104
CCC(C)C1O[C@]2(C=C[C@@H]1C)C[C@@H]1CC(C/C=C(\C)[C@@H](OC3C[C@H](OC)[C@@H](OC4C[C@H](OC)[C@@H](O)[C@H](C)O4)[C@H](C)O3)[C@@H](C)/C=C/C=C3\COC4[C@H](O)C(C)=CC(C(=O)O1)[C@]34O)O2 (stereo partly specified) [Avermectin B1a] | 4.48
C[C@]12CC[C@H]3[C@@H](CCC4=CC(=O)CC[C@@H]43)[C@@H]1CC[C@@H]2O [Nandrolone] | -2.31
COc1ccc(CN2CCNCC2)c(OC)c1OC [Trimetazidine dihydrochloride] | 0.0971
CN1[C@@H]2CC[C@H]1C[C@@H](OC(=O)[C@H](CO)c1ccccc1)C2 [Hyoscyamine (L)] | -1.62

Structure (SMILES) | perinuclear lysosome accumulation
C[C@H](N)[C@H](O)c1ccc(O)c(O)c1 [Levonordefrin] | -0.0462
CC(C)N(CCC(C(N)=O)(c1ccccc1)c1ccccn1)C(C)C (stereo unspecified) [Disopyramide] | -1.24
O=[N+]([O-])O[C@@H]1CO[C@H]2[C@@H]1OC[C@@H]2O [Isosorbide mononitrate] | -1.21
C[C@]12CC[C@@H](O)C[C@@H]1CC[C@@H]1[C@@H]2CC[C@]2(C)C(=O)CC[C@@H]12 [Androsterone] | -3.24
CNCC(O)c1ccc(O)cc1 (racemic) [(+,-)-Synephrine] | -0.0425
C1CCc2nnnn2CC1 [Pentylenetetrazole] | -1.7
C=C1[C@@H]2CC[C@H]3[C@]4(C)C[C@H](O[C@@H]5O[C@H](CO)[C@@H](OS(=O)(=O)O)[C@H](OS(=O)(=O)O)[C@H]5OC(=O)CC(C)C)C[C@@H](C(=O)O)[C@H]4CC[C@]3(C2)[C@@H]1O [Atractyloside potassium salt] | -0.51
CC(Cc1ccc(O)cc1)NCC(O)c1cc(O)cc(O)c1 (stereo unspecified) [Fenoterol hydrobromide] | -0.249
CC1=NCCc2c1[nH]c1cc(O)ccc21 [Harmalol hydrochloride dihydrate] | -0.849
COc1ccc2c(c1)[C@]13CCCC[C@@H]1[C@H](C2)N(C)CC3 [Dextromethorphan hydrobromide monohydrate] | 0.494
S=C(NC1CCCCC1)N1CCC(c2cnc[nH]2)CC1 [Thioperamide maleate] | -0.558
CC(C)CC(N(C)C)C1(c2ccc(Cl)cc2)CCC1 (stereo unspecified) [Sibutramine HCl] | -0.0913
C#C[C@]1(O)CC[C@H]2[C@@H]3CCC4=CC(=O)CC[C@]4(C)[C@H]3CC[C@@]21C [Ethisterone] | 0.543
CC(C)[N+](C)(CCC(C(N)=O)(c1ccccc1)c1ccccc1)C(C)C [Isopropamide iodide] | 1.06
O=C([O-])c1ccccc1-c1c2cc(Br)c(=O)cc-2oc2[c]([Hg+])c([O-])c(Br)cc12.[Na+].[Na+].[OH-] [Merbromin] | 0.681
O=c1[nH]c2ccccc2n1CCCN1CCC(n2c(=O)[nH]c3cc(Cl)ccc32)CC1 [Domperidone] | -0.336
CN1CCC2(C)c3cc(O)ccc3N(C)C12 (single isomer, unassigned; (-)) [(-)-Eseroline fumarate salt] | -1.98
CC(NC(C)(C)C)C(=O)c1cccc(Cl)c1 (stereo unspecified) [Bupropion hydrochloride] | 1.5
CN[C@@H]1[C@@H](O)[C@@H](O[C@@H]2[C@@H](O)[C@H](O[C@H]3O[C@H](CN)CC[C@H]3N)[C@@H](N)C[C@H]2N)OC[C@]1(C)O.CN[C@@H]1[C@@H](O)[C@@H](O[C@@H]2[C@@H](O)[C@H](O[C@H]3O[C@H]([C@@H](C)N)CC[C@H]3N)[C@@H](N)C[C@H]2N)OC[C@]1(C)O.CN[C@@H]1[C@@H](O)[C@@H](O[C@@H]2[C@@H](O)[C@H](O[C@H]3O[C@H]([C@@H](C)NC)CC[C@H]3N)[C@@H](N)C[C@H]2N)OC[C@]1(C)O [Gentamicine sulfate] | -0.742
O=C1CC[C@@]2(O)[C@H]3Cc4ccc(O)c5c4[C@@]2(CCN3CC2CC2)[C@H]1O5 [Naltrexone hydrochloride dihydrate] | -0.164
N[C@@H]1C[C@H]1c1ccccc1 [Tranylcypromine hydrochloride] | 0.521
NCC(CC(=O)O)c1ccc(Cl)cc1 (racemic) [Baclofen (R,S)] | 0.0455

Copied from the listing for reference:
Structure (SMILES) | perinuclear lysosome accumulation
CC1=NCCc2c1[nH]c1cc(O)ccc21 [Harmalol hydrochloride dihydrate] | -0.849
COc1ccc2c(c1)[C@]13CCCC[C@@H]1[C@H](C2)N(C)CC3 [Dextromethorphan hydrobromide monohydrate] | 0.494
S=C(NC1CCCCC1)N1CCC(c2cnc[nH]2)CC1 [Thioperamide maleate] | -0.558

Next part

Structure (SMILES) | perinuclear lysosome accumulation
C#C[C@]1(O)CC[C@H]2[C@@H]3CCC4=CC(=O)CCC4=C3C=C[C@@]21CC [Gestrinone] | 0.165
CN1[C@@H]2C[C@@H](OC(=O)[C@H](CO)c3ccccc3)C[C@H]1[C@@H]1O[C@@H]12 [Scopolamine hydrochloride] | -0.448
C(#CCN1CCCC1)CN1CCCC1 [Tremorine dihydrochloride] | -1.57
C[C@]12CCC(=O)C=C1C=C[C@@H]1[C@@H]2CC[C@@]2(C)[C@H]1CC[C@@]2(O)CCC(=O)O [Canrenoic acid potassium salt] | -1.79
C=CCN1CC[C@]23c4c5ccc(O)c4O[C@H]2C(=O)CC[C@@]3(O)[C@H]1C5 [Naloxone hydrochloride] | 0.0811
CCCC(C)C1(CC)C(=O)NC(=O)NC1=O (stereo unspecified) [Pentobarbital] | -0.914
COP(=O)(OC)C(O)C(Cl)(Cl)Cl (stereo unspecified) [Trichlorfon] | -0.104
C[C@]12C[C@H]3S[C@H]3C[C@@H]1CC[C@@H]1[C@@H]2CC[C@]2(C)[C@@H](O)CC[C@@H]12 [Epitiostanol] | -0.682
CC(=O)O[C@H]1C[C@@H]2CC[C@@H]3[C@H](CC[C@@]4(C)[C@H]3C[C@H]([N+]3(C)CCCCC3)[C@@H]4OC(C)=O)[C@@]2(C)C[C@@H]1[N+]1(C)CCCCC1 [Pancuronium bromide] | 0.101
O=c1c2ccccc2[se]n1-c1ccccc1 [Ebselen] | 1.73
CC[N+]1(C)CCCC(OC(=O)C(O)(c2ccccc2)c2ccccc2)C1 (stereo unspecified) [Pipenzolate bromide] | 1.24
CCCCCC[C@H]1C(=O)O[C@H](C)[C@H](NC(=O)c2cccc(NC=O)c2O)C(=O)O[C@@H](C)[C@@H]1OC(=O)CC(C)C [Antimycin A] | -1.82
c1ccc2c(c1)OCC(C1=NCCN1)O2 (stereo unspecified) [Idazoxan hydrochloride] | 0.0203
COc1cc2c(c(OC)c1OC)-c1ccc(OC)c(=O)cc1[C@@H](NC(C)=O)CC2 [Colchicine] | 3.93
Oc1ccc2c3c1O[C@H]1[C@@H](O)CC[C@@]4(O)[C@@H](C2)N(CC2CCC2)CC[C@]314 [Nalbuphine hydrochloride] | -0.337
CN1C[C@H](CNC(=O)OCc2ccccc2)C[C@@H]2c3cccc4c3c(cn4C)C[C@H]21 [Metergoline] | 0.711
CC(=O)O[C@H]1CC[C@@]2(C)C(=CC[C@@H]3[C@@H]2CC[C@]2(C)C(=O)CC[C@@H]32)C1 [Dehydroisoandosterone 3-acetate] | 0.335
O=C(NCNC(=O)NC1C(=O)NC(=O)N1CO)NC1C(=O)NC(=O)N1CO (stereo unspecified) [Imidurea] | -2.77
C[C@]12CC[C@H](O)C[C@H]1CC[C@@H]1[C@@H]2CC[C@]2(C)[C@@H](C3=CC(=O)OC3)CC[C@]12O [Digitoxigenin] | 0.605
CC(C)c1cccc(C(C)C)c1O [Propofol] | -3.44
CCOC(=O)c1cncn1[C@H](C)c1ccccc1 [Etomidate] | 1.29
CC(O)(CS(=O)(=O)c1ccc(F)cc1)C(=O)Nc1ccc(C#N)c(C(F)(F)F)c1 (stereo unspecified) [Bicalutamide] | 1.89
